No constants are given. Whether binding was seen depends on the method and setting. Some entries that bind do so weakly or less than the wild type.
Key:
[1] = molecular target: T1, T-cadherin (endogenous, mouse, on cardiomyocyte surfaces) (mouse) (UniProt Q9WTR5); assay: immunofluorescence of heart sections; adiponectin surface staining fell to background in T-cadherin null hearts
T1 sequence (GPI anchor, looked up): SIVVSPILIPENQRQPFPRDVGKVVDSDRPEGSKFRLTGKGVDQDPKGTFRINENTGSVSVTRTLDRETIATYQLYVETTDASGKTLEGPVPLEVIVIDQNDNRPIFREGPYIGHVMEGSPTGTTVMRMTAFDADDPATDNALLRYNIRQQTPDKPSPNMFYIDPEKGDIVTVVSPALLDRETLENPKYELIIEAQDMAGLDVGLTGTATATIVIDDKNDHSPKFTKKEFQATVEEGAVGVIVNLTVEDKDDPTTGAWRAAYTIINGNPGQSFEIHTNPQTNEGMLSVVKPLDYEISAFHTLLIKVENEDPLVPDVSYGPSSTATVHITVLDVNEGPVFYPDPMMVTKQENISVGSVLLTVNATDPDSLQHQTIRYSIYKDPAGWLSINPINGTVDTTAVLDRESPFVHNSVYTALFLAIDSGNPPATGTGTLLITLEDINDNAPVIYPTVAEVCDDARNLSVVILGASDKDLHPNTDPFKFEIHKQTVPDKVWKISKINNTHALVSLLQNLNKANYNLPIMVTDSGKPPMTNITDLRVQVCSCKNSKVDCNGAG

[2] = molecular target: T1, T-cadherin (endogenous, mouse, on cardiomyocyte surfaces) (mouse); assay: immunostaining of wild type, T-cadherin null and adiponectin null hearts (FIG. 2A legend)
[3] = molecular target: T1, T-cadherin (endogenous, mouse, on cardiomyocyte surfaces) (mouse); assay: tissue staining together with serum adiponectin ELISA in wild type and T-cadherin null mice

Measured: binding

B1: adiponectin (endogenous, mouse) (ligand, UniProt Q60994 18-247, looked up)
chain: EDDVTTTEELAPALVPPPKGTCAGWMAGIPGHPGHNGTPGRDGRDGTPGEKGEKGDAGLLGPKGETGDVGMTGAEGPRGFPGTPGRKGEPGEAAYVYRSAFSVGLETRVTVPNVPIRFTKIFYNQQNHYDGSTGKFYCNIPGLYYFSYHITVYMKDVKVSLFKKDKAVLFTYDQYQEKNVDQASGSVLLHLEVGDQVWLQVYGDGDHNGLYADNVNDSTFTGFLLYHDTN
binds: all assays above

— patent publication US20100269180A1
